Reference: patent publication US8524659B2, “RNA virus-derived peptides with modified side chains” (National Taiwan University, priority 2011, dated 2013)
Not every detail of the peptide structures is certain; ends, links or a residue may be inferred.

System: HIV TAR RNA
Experiment: Gel shift assay (EMSA) with fluorescein-labeled TAR RNA in the presence of poly(dI-dC)
Type: binding
Conditions: comparison of absence and presence of poly(dI-dC), Table 1
Procedure: The fluorescein-labeled TAR RNA (F-TAR-RNA) was purchased from Sigma. F-TAR-RNA was dissolved in diethyl pyrocarbonate treated H2O to give a 50 μM solution. Binding assays were performed at room temperature. Peptide and RNA were incubated in pH 7.4 buffer (10 μL) containing Tris-HCl (50 mM), KCl (50 mM), poly-dIdC (10 μg/mL), 2% glycerol, and Triton X-100 (0.05%). The F-TAR-RNA concentration was 100 nM. The samples were analyzed by loading into 12% native polyacrylamide gels in […] and electrophoresis was performed with 140 V at room temperature. Dried gels were scanned by the Typhoon TRIO+ Variable Mode Imager. Bands corresponding to the free and bound RNA were quantified using ImageQuant software. The apparent dissociation constants were globally derived from the quantified data assuming a 1:1 binding stoichiometry.

SMILES	Effect of poly(dI-dC) on binding affinity for TAR RNA (specificity)
CC(=O)N[C@@H](Cc1ccc(O)cc1)C(=O)NCC(=O)N[C@@H](CCNC(=N)N)C(=O)N[C@@H](CCCCN)C(=O)N[C@@H](CCCCN)C(=O)N[C@@H](CCNC(=N)N)C(=O)N[C@@H](CCNC(=N)N)C(=O)N[C@@H](CCC(N)=O)C(=O)N[C@@H](CCNC(=N)N)C(=O)N[C@@H](CCNC(=N)N)C(=O)N[C@@H](CCNC(=N)N)C(N)=O [AgbTat, Ac-Tyr-Gly-Agb-Lys-Lys-Agb-Agb-Gln-Agb-Agb-Agb-NH2]	not affected
CC(=O)N[C@@H](Cc1ccc(O)cc1)C(=O)NCC(=O)N[C@@H](CCCCNC(=N)N)C(=O)N[C@@H](CCCCN)C(=O)N[C@@H](CCCCN)C(=O)N[C@@H](CCCCNC(=N)N)C(=O)N[C@@H](CCCCNC(=N)N)C(=O)N[C@@H](CCC(N)=O)C(=O)N[C@@H](CCCCNC(=N)N)C(=O)N[C@@H](CCCCNC(=N)N)C(=O)N[C@@H](CCCCNC(=N)N)C(N)=O [AghTat, Ac-Tyr-Gly-Agh-Lys-Lys-Agh-Agh-Gln-Agh-Agh-Agh-NH2]	significantly reduced
